# Some of the results follow.
# B1: Mcg Light Chain Dimer (Homo sapiens), Q6PIK1 (protein)
# chain: MAGFPLLLTLLTHCAGSWGQSLLTQPPSVSGTPGQRVTISCSGSSSNIGINYVYWYQQIPGTAPKLLISTNDQRPSGVPDRFSGSKSGTSASLAIGGLRSEDEAHYYCAAWDDSMSGPGYAFGTGTKVTVLRQPKANPTVTLFPPSSEELQANKATLVCLISDFYPGAVTVAWKADGSPVKAGVETTKPSKQSNNKYAASSYLSLTPEQWKSHRSYSCQVTHEGSTVEKTVAPTECS
# Key:
# Assay in all cases: glycan array binding signal (z-score within array); higher = stronger binding
# Settings in all cases: glycan notation: IUPAC condensed, linker removed
# Fuc(a1-2)Gal = target: Fuc(a1-2)Gal
# How it was run: (§1)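 Glycan array binding is given as a within-array Z-score, which can be read as non-binding when negative. The arrays, 3228 of them, came from the Consortium for Functional Glycomics database and were retained only where the protein sequence was available. Z-scores were averaged across arrays of the same protein sequence at different concentrations or buffers and across linkers.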
# Fuc(a1-2)Gal(b1-3)GalNAc = target: Fuc(a1-2)Gal(b1-3)GalNAc
# How it was run: as §1
# [1] = target: Fuc(a1-2)Gal(b1-3)GalNAc(b1-3)Gal
# How it was run: as §1
# [2] = target: Fuc(a1-2)Gal(b1-3)GalNAc(b1-3)Gal(a1-4)Gal(b1-4)Glc
# How it was run: as §1
# [3] = target: Fuc(a1-2)Gal(b1-3)GalNAc(b1-4)[Neu5Ac(a2-3)]Gal(b1-4)Glc
# How it was run: as §1
# Fuc(a1-2)Gal(b1-3)GlcNAc = target: Fuc(a1-2)Gal(b1-3)GlcNAc
# How it was run: as §1
# [4] = target: Fuc(a1-2)Gal(b1-3)GlcNAc(b1-3)Gal(b1-4)Glc
# How it was run: as §1
# [5] = target: Fuc(a1-2)Gal(b1-3)[Fuc(a1-4)]GlcNAc
# How it was run: as §1
# Fuc(a1-2)Gal(b1-4)Glc = target: Fuc(a1-2)Gal(b1-4)Glc
# How it was run: as §1
# Fuc(a1-2)Gal(b1-4)Glc6S = target: Fuc(a1-2)Gal(b1-4)Glc6S
# How it was run: as §1
# Fuc(a1-2)Gal(b1-4)GlcNAc = target: Fuc(a1-2)Gal(b1-4)GlcNAc
# How it was run: as §1
# [6] = target: Fuc(a1-2)Gal(b1-4)GlcNAc(b1-3)Gal(b1-4)GlcNAc
# How it was run: as §1
# [7] = target: Fuc(a1-2)Gal(b1-4)GlcNAc(b1-3)Gal(b1-4)GlcNAc(b1-3)Gal(b1-4)GlcNAc
# How it was run: as §1
# [8] = target: Fuc(a1-2)Gal(b1-4)GlcNAc6S
# How it was run: as §1
# [9] = target: Fuc(a1-2)Gal(b1-4)[Fuc(a1-3)]GlcNAc
# How it was run: as §1
# [10] = target: Fuc(a1-2)Gal(b1-4)[Fuc(a1-3)]GlcNAc(b1-3)Gal(b1-4)[Fuc(a1-3)]GlcNAc
# How it was run: as §1
# [11] = target: Fuc(a1-2)Gal(b1-4)[Fuc(a1-3)]GlcNAc(b1-3)Gal(b1-4)[Fuc(a1-3)]GlcNAc(b1-3)Gal(b1-4)[Fuc(a1-3)]GlcNAc
# How it was run: as §1
# Fuc(a1-2)Gal6S(b1-4)Glc = target: Fuc(a1-2)Gal6S(b1-4)Glc
# How it was run: as §1
# [12] = target: Fuc(a1-2)Gal6S(b1-4)Glc6S
# How it was run: as §1
# [13] = target: Fuc(a1-2)Gal6S(b1-4)GlcNAc
# How it was run: as §1
# Fuc(a1-2)[Gal(a1-3)]Gal = target: Fuc(a1-2)[Gal(a1-3)]Gal
# How it was run: as §1
# [14] = target: Fuc(a1-2)[Gal(a1-3)]Gal(b1-3)GlcNAc
# How it was run: as §1
# [15] = target: Fuc(a1-2)[Gal(a1-3)]Gal(b1-4)Glc
# How it was run: as §1
# [16] = target: Fuc(a1-2)[Gal(a1-3)]Gal(b1-4)GlcNAc
# How it was run: as §1
# [17] = target: Fuc(a1-2)[Gal(a1-3)]Gal(b1-4)[Fuc(a1-3)]GlcNAc
# How it was run: as §1
# [18] = target: Fuc(a1-2)[Gal(a1-4)]Gal(b1-4)GlcNAc
# How it was run: as §1
# [19] = target: Fuc(a1-2)[GalNAc(a1-3)]Gal
# How it was run: as §1
# [20] = target: Fuc(a1-2)[GalNAc(a1-3)]Gal(b1-3)GlcNAc
# How it was run: as §1
# [21] = target: Fuc(a1-2)[GalNAc(a1-3)]Gal(b1-4)Glc
# How it was run: as §1
# [22] = target: Fuc(a1-2)[GalNAc(a1-3)]Gal(b1-4)GlcNAc
# How it was run: as §1
# [23] = target: Fuc(a1-2)[GalNAc(a1-3)]Gal(b1-4)[Fuc(a1-3)]GlcNAc
# How it was run: as §1
# [24] = target: Fuc(a1-2)[GalNAc(a1-4)]Gal(b1-4)GlcNAc
# How it was run: as §1
# [25] = target: Fuc(a1-2)[GalNAc(b1-3)]Gal
# How it was run: as §1
# Fuc(a1-3)GlcNAc = target: Fuc(a1-3)GlcNAc
# How it was run: as §1
# [26] = target: Fuc(a1-3)[Gal(b1-4)]Glc6S
# How it was run: as §1
# [27] = target: Fuc(a1-3)[Gal(b1-4)]GlcNAc
# How it was run: as §1
# [28] = target: Fuc(a1-3)[Gal(b1-4)]GlcNAc(b1-2)Man(a1-3)[Fuc(a1-3)[Gal(b1-4)]GlcNAc(b1-2)Man(a1-6)]Man(b1-4)GlcNAc(b1-4)GlcNAc
# How it was run: as §1
# [29] = target: Fuc(a1-3)[Gal(b1-4)]GlcNAc(b1-2)Man(a1-6)[Gal(b1-4)GlcNAc(b1-2)Man(a1-3)]Man(b1-4)GlcNAc(b1-4)GlcNAc
# How it was run: as §1
# [30] = target: Fuc(a1-3)[Gal(b1-4)]GlcNAc(b1-3)Gal(b1-3)[Fuc(a1-4)]GlcNAc
# How it was run: as §1
# [31] = target: Fuc(a1-3)[Gal(b1-4)]GlcNAc(b1-4)Gal(b1-4)[Fuc(a1-3)]GlcNAc
# How it was run: as §1
# [32] = target: Fuc(a1-3)[Gal(b1-4)]GlcNAc(b1-4)Gal(b1-4)[Fuc(a1-3)]GlcNAc(b1-4)Gal(b1-4)[Fuc(a1-3)]GlcNAc
# How it was run: as §1
# [33] = target: Fuc(a1-3)[Gal(b1-4)]GlcNAc6S
# How it was run: as §1
# [34] = target: Fuc(a1-3)[Gal3S(b1-4)]Glc6S
# How it was run: as §1
# [35] = target: Fuc(a1-3)[Gal3S(b1-4)]GlcNAc
# How it was run: as §1
# [36] = target: Fuc(a1-3)[Gal3S(b1-4)]GlcNAc6S
# How it was run: as §1
binder,measurement,setting,value
B1,glycan array binding signal (z-score),Fuc(a1-2)Gal,0.391
same,glycan array binding signal (z-score),Fuc(a1-2)Gal(b1-3)GalNAc,0.185
same,glycan array binding signal (z-score),[1],-0.611
same,glycan array binding signal (z-score),[2],0.219
same,glycan array binding signal (z-score),[3],0.092
same,glycan array binding signal (z-score),Fuc(a1-2)Gal(b1-3)GlcNAc,-0.346
same,glycan array binding signal (z-score),[4],-0.386
same,glycan array binding signal (z-score),[5],-0.879
same,glycan array binding signal (z-score),Fuc(a1-2)Gal(b1-4)Glc,-0.76
same,glycan array binding signal (z-score),Fuc(a1-2)Gal(b1-4)Glc6S,0.735
same,glycan array binding signal (z-score),Fuc(a1-2)Gal(b1-4)GlcNAc,-0.245
same,glycan array binding signal (z-score),[6],-0.758
same,glycan array binding signal (z-score),[7],1.09
same,glycan array binding signal (z-score),[8],1.76
same,glycan array binding signal (z-score),[9],-0.471
same,glycan array binding signal (z-score),[10],-0.965
same,glycan array binding signal (z-score),[11],0.461
same,glycan array binding signal (z-score),Fuc(a1-2)Gal6S(b1-4)Glc,-0.637
same,glycan array binding signal (z-score),[12],0.412
same,glycan array binding signal (z-score),[13],-0.601
same,glycan array binding signal (z-score),Fuc(a1-2)[Gal(a1-3)]Gal,-0.347
same,glycan array binding signal (z-score),[14],-0.231
same,glycan array binding signal (z-score),[15],-1.02
same,glycan array binding signal (z-score),[16],0.23
same,glycan array binding signal (z-score),[17],-0.709
same,glycan array binding signal (z-score),[18],-0.754
same,glycan array binding signal (z-score),[19],-0.361
same,glycan array binding signal (z-score),[20],-0.917
same,glycan array binding signal (z-score),[21],0.238
same,glycan array binding signal (z-score),[22],-0.401
same,glycan array binding signal (z-score),[23],0.285
same,glycan array binding signal (z-score),[24],0.28
same,glycan array binding signal (z-score),[25],0.344
same,glycan array binding signal (z-score),Fuc(a1-3)GlcNAc,-0.817
same,glycan array binding signal (z-score),[26],0.996
same,glycan array binding signal (z-score),[27],-0.433
same,glycan array binding signal (z-score),[28],0.038
same,glycan array binding signal (z-score),[29],-0.998
same,glycan array binding signal (z-score),[30],-0.769
same,glycan array binding signal (z-score),[31],0.391
same,glycan array binding signal (z-score),[32],-0.985
same,glycan array binding signal (z-score),[33],-0.489
same,glycan array binding signal (z-score),[34],2.11
same,glycan array binding signal (z-score),[35],0.341
same,glycan array binding signal (z-score),[36],4.13

# For reference, some entries already given.
binder,measurement,setting,value
B1,glycan array binding signal (z-score),[18],-0.754
same,glycan array binding signal (z-score),[19],-0.361

# — the supplement of paper PMC8728848
